{"sequences": {"note": "By UniProt entry, the sequences of proteins in these tests, tags left out. Residues count along the entry.", "UniProt P30532, residues 23-468": "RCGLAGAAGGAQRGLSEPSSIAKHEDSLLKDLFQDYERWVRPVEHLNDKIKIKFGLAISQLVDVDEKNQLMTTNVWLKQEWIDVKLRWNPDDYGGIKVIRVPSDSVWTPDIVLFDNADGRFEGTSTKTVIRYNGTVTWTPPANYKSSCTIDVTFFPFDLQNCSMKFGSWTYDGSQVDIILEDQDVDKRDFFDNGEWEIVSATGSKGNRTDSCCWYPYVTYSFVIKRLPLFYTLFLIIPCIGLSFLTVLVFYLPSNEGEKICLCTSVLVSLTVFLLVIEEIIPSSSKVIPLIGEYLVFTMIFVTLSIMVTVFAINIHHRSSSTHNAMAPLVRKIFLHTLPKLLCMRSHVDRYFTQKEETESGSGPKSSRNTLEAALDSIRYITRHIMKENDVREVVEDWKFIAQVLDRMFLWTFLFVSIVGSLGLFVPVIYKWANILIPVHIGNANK"}, "source": "paper PMC11180178", "target": "cholinergic receptor nicotinic alpha 5 subunit (CHRNA5) (human (endogenous in AMC-HN8 and FD-LSC-1)) (UniProt P30532)", "assay": "affinity purification with mass spectrometry; IP with anti-CHRNA5 antibodies and protein A/G beads overnight from AMC-HN8 lysate; IgG as control; eluted proteins digested and analysed by MS", "note": "Results are given in words; binding and its absence hold for the method and conditions named. In cells and extracts the contact can be indirect. A yes stands for co-enrichment or nearness to the bait. Other partners may have been found."}
{"binder": "RABL6 (protein, UniProt Q3YEC7 1-729) MFSALKKLVGSDQAPGRDKNIPAGLQSMNQALQRRFAKGVQYNMKIVIRGDRNTGKTALWHRLQGRPFVEEYIPTQEIQVTSIHWSYKTTDDIVKVEVWDVVDKGKCKKRGDGLKMENDPQEAESEMALDAEFLDVYKNCNGVVMMFDITKQWTFNYILRELPKVPTHVPVCVLGNYRDMGEHRVILPDDVRDFIDNLDRPPGSSYFRYAESSMKNSFGLKYLHKFFNIPFLQLQRETLLRQLETNQLDMDATLEELSVQQETEDQNYGIFLEMMEARSRGHASPLAANGQSPSPGSQSPVVPAGAVSTGSSSPGTPQPAPQLPLNAAPPSSVPPVPPSEALPPPACPSAPAPRRSIISRLFGTSPATEAAPPPPEPVPAAEGPATVQSVEDFVPDDRLDRSFLEDTTPARDEKKVGAKAAQQDSDSDGEALGGNPMVAGFQDDVDLEDQPRGSPPLPAGPVPSQDITLSSEEEAEVAAPTKGPAPAPQQCSEPETKWSSIPASKPRRGTAPTRTAAPPWPGGVSVRTGPEKRSSTRPPAEMEPGKGEQASSSESDPEGPIAAQMLSFVMDDPDFESEGSDTQRRADDFPVRDDPSDVTDEDEGPAEPPPPPKLPLPAFRLKNDSDLFGLGLEEAGPKESSEEGKEGKTPSKEKKKKKKKGKEEEEKAAKKKSKHKKSKDKEEGKEERRRRQQRPPRSRERTAADELEAFLGGGAPGGRHPGGGDYEEL", "values": [{"measurement": "binding", "value": "binds"}]}
